The results in this text go back to ChEMBL document CHEMBL3526101, “Discovery and characterization of novel, potent, and selective cytochrome P450 2J2 inhibitors” (Drug Metab Dispos, 2013).

For this test, the target named is T1, Cytochrome P450 2J2 (Homo sapiens, UniProt P51589).
T1 sequence (P51589 whole entry): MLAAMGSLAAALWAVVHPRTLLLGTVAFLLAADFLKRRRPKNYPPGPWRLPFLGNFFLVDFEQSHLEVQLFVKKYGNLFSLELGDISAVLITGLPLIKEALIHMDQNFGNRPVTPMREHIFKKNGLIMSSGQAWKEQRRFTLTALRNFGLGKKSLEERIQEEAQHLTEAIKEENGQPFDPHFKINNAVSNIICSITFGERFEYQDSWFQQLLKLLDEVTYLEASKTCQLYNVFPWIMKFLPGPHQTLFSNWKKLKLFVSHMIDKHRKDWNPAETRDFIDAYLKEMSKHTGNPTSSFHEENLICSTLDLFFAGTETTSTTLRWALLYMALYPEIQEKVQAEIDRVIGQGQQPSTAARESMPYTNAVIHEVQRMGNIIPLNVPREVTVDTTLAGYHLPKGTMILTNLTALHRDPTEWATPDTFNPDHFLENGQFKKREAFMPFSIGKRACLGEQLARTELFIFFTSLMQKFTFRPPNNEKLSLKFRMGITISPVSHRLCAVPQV

In the case of `COC(=O)C1=C(C)NC(C)=C(C(=O)OC)C1c1ccccc1[N+](=O)[O-]` [NIFEDIPINE], it took 3.06 µM to reach half-maximal inhibition (IC50).
